Measurements: PMC12384813 (2025)

Legend:
[1] = general procedure: Fmoc solid-phase peptide synthesis; 2-chlorotrityl chloride resin (loading capacity: 0.8 mmol/g); HATU/DIPEA; PyBOP/HOBt/DIPEA for cyclization
[2] = general procedure: Fmoc solid-phase peptide synthesis; 2-chlorotrityl chloride resin; HATU/DIPEA; PyBOP/HOBt/DIPEA for cyclization; details: whole synthesis

Substance | step yield ([1]; late stage modification step) [%] | final purity (method not given) ([1]; late stage modification step, analytical HPLC (Agilent 1200, Zorbax Eclipse XDB C18, diode array UV-Vis)) [%] | isolated yield [2] | final HPLC purity ([1]; whole synthesis, analytical HPLC (Agilent 1200, Zorbax Eclipse XDB C18, diode array UV-Vis)) [%]
^natCu-NOTA-c(RGDfK) | 90 | 99 | – | –
NOTA-TP-c(RGDfK) [5] | – | – | 2–3% | –
NOTA-c(RGDfK) | – | – | 28% yield | 99
